# Patent US20210122780A1, “COMPOSITIONS FOR THE PREVENTION AND TREATMENT OF PARKINSON'S DISEASE” (Metselex, Inc., priority 2018, published 2021)
# “Also recorded” adds a separate entry of the source. At least one structure is not confirmed: it was looked up by name or label, or the drawing left a doubt. Some of these results come from one statement about several compounds together.
# Legend:
# [1] = test system: SH-SY5Y cells; assay: Nuclear staining (Hoechst 33342/PI) for apoptosis and necrosis; format: cell-based, human; conditions: FIG. 3
# Experimental: For the fluorescent detection of apoptotic and necrotic cells, nuclear staining with Hoechst dye 33342 and propidium iodide (PI) was performed. SH-SY5Y cells were exposed to SNP (1 mM) for 24 h with or without pretreatment with UDCA or YS. After fixation with 1% paraformaldehyde (PBS) for 30 min at room temperature, cells were washed with PBS and then stained with Hoechst 33342 (10 μM) for 10 min. Cells were washed with PBS and further stained with PI (10 μM) for 10 min. Stained cells were washed with PBS and observed under a fluorescent microscopy. The apoptotic cells were determined as bright condensed and fragmented nuclei. PI positive cells stained with pink to red color were counted as necrotic cells.
# [2] = test system: caspase-3/7; assay: Caspase-3/7 activity (Ac-DEVD-AMC); format: cell-based, human; conditions: UDCA 50-200 μM or YS 100-200 μM pretreatment, 1 mM SNP 12 h
# [3] = test system: caspase-9; assay: Caspase-9 activity (Ac-LEHD-AMC); format: cell-based, human; conditions: UDCA 50-200 μM or YS 100-200 μM pretreatment, 1 mM SNP 12 h
# [4] = test system: SH-SY5Y cells; assay: Total ROS production (H2DCFDA); format: cell-based, human; conditions: SNP-treated SH-SY5Y
# Experimental: (§1) After washing with Hank's balanced salt solution (HBSS), cells were incubated with 20 μM H2DCFDA or 50 μM DHR at 37° C. for 30 min, and then rinsed with HBSS. The fluorescence intensity was measured using an automatic fluorescence microplate reader (SpectraMax M2, Molecular Devices) at an excitation wavelength of 485 nm and an emission of 535 nm. The values were expressed as a percentage of fluorescence intensity to the untreated control group. The production of NO was determined by measuring nitrite, a stable oxidation product of NO in the culture medium. […] After a 10-min reaction, the absorbance at 550 nm was measured in a microplate reader (VersaMax, Molecular Devices). Sodium nitrite (NaNO2) was used as a standard to calculate nitrite concentrate and the values were expressed in micromoles.
# [5] = test system: SH-SY5Y cells; assay: Peroxynitrite (ONOO−) formation (DHR 123); format: cell-based, human
# [6] = test system: SH-SY5Y cells; assay: NO production (Griess reagent, nitrite); format: cell-based, human
# Experimental: as §1
# [7] = test system: SH-SY5Y cells; assay: Mitochondrial membrane potential (JC-1); format: cell-based, human; conditions: SNP-treated SH-SY5Y
# Experimental: Anaspec Inc.). JC-1 preferentially accumulates in mitochondria as red aggregates in normal conditions but it exists as green monomers in the cytosol when MMP collapsed during apoptosis. The ratio of red/green fluorescence correlates with MMP. […] Next, 5 μg/ml JC-1 was added and incubated at 37° C. for 15 min in dark. After wash three times with PBS, MMP was measured at 535/590 nm (Ex/Em) for red fluorescence and 485/535 (Ex/Em) for green fluorescence using a fluorescence multimode microplate reader (Infinite 200; Tecan). Results were calculated as the ratio of red-to-green fluorescence and the values were expressed as the percentage over control.
# [8] = test system: SH-SY5Y cells; assay: Cellular reduced glutathione (GSH) content (MCB); format: cell-based, human; conditions: UDCA 50, 100, 200 μM or YS 100, 200 μM pretreatment
# [9] = test system: Bcl-2, Bax, cytochrome c; assay: Immunoblot analysis of Bcl-2, Bax, cytochrome c; format: cell-based, human
# [10] = test system: p53; assay: p53 functional studies in hepatocytes; format: cell-based, rat
# [11] = test system: Primary rat hepatocytes; assay: Microarray gene expression profiling (Affymetrix Rat Expression Array 230A); format: cell-based; conditions: array analysis
# Experimental: We determined the global profile of genes regulated by UDCA by using Affymetrix GeneChip® Rat Expression Array 230A, consisting of approximately 16,000 transcripts and variants. cRNA prepared from vehicle-treated cells was used for comparative analysis. The relative levels of gene expression after 24 h treatment of hepatocytes with 100 μM UDCA were compared by plotting the average difference between cells, and determining the fold change in gene expression. […] We also assessed the specificity and sensitivity of the microarray analysis. Hierarchical clustering was performed using specific gene subsets.
# [12] = format: physicochemical
# Experimental: Measurement of chemical stability of phosphorylated compounds. 4.0 mg of prodrug (19b, 19c, or 19d) were dissolved in 1.0 mL D2O. A sealed capillary tube containing phenylphosphonic acid dissolved in D2O was added as a standard. At time=0, a ^1H NMR spectrum was obtained and the proton signal at […]5.51 was integrated (It=0) relative to the aromatic signals from phenylphosphonic acid. After 7 days at rt, a new NMR spectrum was taken and the proton signal at δ 5.51 was integrated again (It=7). The percent starting material remaining was It=7/It=0×100. Each experiment was repeated three times. Chemical stability results obtained either by measuring the disappearance of starting material relative to the internal standard by ^31P NMR or by using inverse-gated decoupled phosphorus NMR and integrating starting material and product were very similar to the numbers obtained using ^1H NMR. For 19e, 4.0 mg 19b was dissolved in D2O and an additional equivalent of Tris added (the stoichiometry was confirmed by ^1H NMR) and the experiment conducted as above.
# [13] = Aqueous solubility of prodrug salts; conditions: water
smiles,measurement,setting,value
"C[C@H](CCC(=O)O)[C@H]1CC[C@H]2[C@@H]3[C@@H](O)C[C@@H]4C[C@H](O)CC[C@]4(C)[C@H]3CC[C@]12C [UDCA, ursodeoxycholic acid]",apoptosis / SNP-induced apoptotic events,[1],significantly attenuated; also recorded: reduces apoptosis
same,effect of SNP on caspase-3/7 activity,[2],strongly attenuated
same,effect of SNP on caspase-9 activity,[3],strongly attenuated
same,production of total ROS,[4],effectively attenuated
same,SNP-induced peroxynitrite generation,"[5]; UDCA 50, 100, 200 μM or YS 100, 200 μM",effectively attenuated; also recorded: inhibited
same,SNP-induced peroxynitrite generation,"[5]; high dose, 200 μM",almost complete blocking
same,SNP-induced NO production,[6],effectively attenuated
same,mitochondrial membrane potential (MMP) loss,[7],markedly inhibited
same,SNP-induced GSH depletion,[8],markedly inhibited; also recorded: markedly attenuated
same,protein levels of Bax and Bcl-2 and cytochrome c,"[9]; SH-SY5Y, FIG. 4A-B",significantly impacts
same,SNP-induced Bax translocation to the mitochondria,"[9]; UDCA 200 μM pretreatment, SNP 1 mM",almost completely blocked
same,Mdm-2-dependent ubiquitination of p53,[10],stimulated
same,cellular proteasomal activity,[10],increases
same,p53 half-life,[10],decreasing
same,association between p53 and Mdm-2,[10]; hepatocytes preincubated with UDCA,increased association
same,"apoptotic hallmarks induced by p53 overexpression (Bax translocation, cytochrome c release, caspase-3 activation)",[10]; primary rat hepatocytes,abrogation of all apoptotic hallmarks
same,p53 nuclear export,[10]; primary rat hepatocytes,promoting its nuclear export
same,transcriptional and DNA binding activity of p53,[10]; primary rat hepatocytes,reduced
same,TGF-β1-induced p53 stabilization and apoptosis,"[10]; primary rat hepatocytes, previously shown",prevents
same,Apaf-1 expression,[11],robustly down-regulated
"C[C@H](CCC(=O)[O-])[C@H]1CC[C@H]2[C@@H]3[C@@H](O)C[C@@H]4C[C@H](OP(=O)([O-])O)CC[C@]4(C)[C@H]3CC[C@]12C.[Na+].[Na+] [Compound 3, 3-(Phosphonatooxy)-ursodeoxycholic acid sodium salt]",stable in solution without any apparent decomposition,[12],> 6 months
same,"aqueous solubility, rapidly dissolving at all concentrations tested",[13],≥ 20 mg/mL
"C[C@H](CCC(=O)[O-])[C@H]1CC[C@H]2[C@@H]3[C@@H](OP(=O)([O-])[O-])C[C@@H]4C[C@H](O)CC[C@]4(C)[C@H]3CC[C@]12C.[Na+].[Na+].[Na+] [Compound 7, 7-(Phosphonatooxy)-ursodeoxycholic acid sodium salt]",stable in solution without any apparent decomposition,[12],> 6 months
same,"aqueous solubility, rapidly dissolving at all concentrations tested",[13],≥ 20 mg/mL
O=c1cc(N2CCOCC2)oc2c(-c3ccccc3)cccc12 [LY294002],effect on UDCA inhibition of SNP-induced Bax translocation,"[9]; pretreatment with inhibitor, UDCA 200 μM, SNP 1 mM",markedly reversed
